{"source": "patent US5493006A", "about": "(The Salk Institute for Biological Studies, priority 1993, dated 1996)", "assay": "general procedure: Boc solid-phase peptide synthesis; MBHA hydrochloride resin (Bachem), about 0.43 to 0.46 mequiv/gm; DCC (DCC/HOBt for Asn, Gln); BOP/DIEA for on-resin cyclization", "settings": "whole synthesis; for final purity (method not given): purity further confirmed by MS and capillary zone electrophoresis", "note": "HELM strings list residues between dots; [ac] is acetyl, [am] amide, other brackets name non-standard units.", "data": [{"substance": "PEPTIDE1{[dF].H.L.L.R.E.V.L.C.[Nle].A.C.A.E.Q.L.A.Q.Q.A.H.S.N.R.K.L.[Nle].E.I.I.[am]}$PEPTIDE1,PEPTIDE1,9:R3-12:R3$$$V2.0", "values": [{"measurement": "isolated yield", "result": 4.4, "unit": "%"}]}, {"substance": "PEPTIDE1{[dF].H.L.L.R.E.V.L.E.[Nle].A.K.A.E.Q.L.A.Q.Q.A.H.S.N.R.K.L.[Nle].E.I.I.[am]}$PEPTIDE1,PEPTIDE1,9:R3-12:R3$$$V2.0", "values": [{"measurement": "isolated yield", "setting": "of expected amount from the original substitution of the MBHA resin", "result": 3.6, "unit": "%"}, {"measurement": "final purity (method not given)", "result": "about 98%"}]}, {"substance": "PEPTIDE1{[dF].H.L.L.R.E.V.L.E.[Nle].A.[Orn].A.E.Q.L.A.Q.Q.A.H.S.N.R.K.L.[Nle].E.I.I.[am]}$PEPTIDE1,PEPTIDE1,9:R3-12:R3$$$V2.0", "values": [{"measurement": "final purity (method not given)", "result": "about 98%"}]}]}
